Results are given in words; binding and its absence hold for the method and conditions named. Binding seen in cells or lysates may run through a third protein. Some binding calls cover weakened binding; strength is not graded here. Tags and fused reporters may be left off the sequences shown.
Legend:
[1] = molecular target: scaffold protein GRB2 (human (endogenous in HeLa)) (UniProt P62993); experiment: co-IP; HeLa co-transfected with Flag-PTPN21 and Y527F SRC; immunoprecipitation with anti-GRB2; blot with anti-Flag
[2] = molecular target: GST fusion of the SH2 domain of GRB2 (UniProt P62993); experiment: pull-down; 50 μg GST fusion of a GRB2 domain incubated with lysate (RIPA buffer) of HeLa transfected with Flag-PTPN21, in presence or absence of Y527F SRC; glutathione-Sepharose 4B, 4°C; blot with anti-Flag; only the target purified
HA-SCRIB = HA-SCRIB (UniProt Q14160); experiment: co-IP; H1299 transfected with HA-SCRIB, Flag-DUSP26 or both; immunoprecipitation with anti-Flag or with anti-HA; detection with anti-SCRIB or anti-DUSP26

Amino acid sequences for entries named in this document (tags omitted). A change or cut given only in a name is not applied to a line headed by its entry. Residues count along the entry.
UniProt P62993: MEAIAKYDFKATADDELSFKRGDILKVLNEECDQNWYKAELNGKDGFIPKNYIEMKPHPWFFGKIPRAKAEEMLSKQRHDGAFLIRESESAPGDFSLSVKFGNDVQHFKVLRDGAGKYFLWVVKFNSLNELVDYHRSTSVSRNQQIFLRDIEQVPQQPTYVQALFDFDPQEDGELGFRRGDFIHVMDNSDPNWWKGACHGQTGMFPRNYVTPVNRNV
GST fusion of the SH2 domain of GRB2: residues 60-152 of P62993
UniProt Q14160: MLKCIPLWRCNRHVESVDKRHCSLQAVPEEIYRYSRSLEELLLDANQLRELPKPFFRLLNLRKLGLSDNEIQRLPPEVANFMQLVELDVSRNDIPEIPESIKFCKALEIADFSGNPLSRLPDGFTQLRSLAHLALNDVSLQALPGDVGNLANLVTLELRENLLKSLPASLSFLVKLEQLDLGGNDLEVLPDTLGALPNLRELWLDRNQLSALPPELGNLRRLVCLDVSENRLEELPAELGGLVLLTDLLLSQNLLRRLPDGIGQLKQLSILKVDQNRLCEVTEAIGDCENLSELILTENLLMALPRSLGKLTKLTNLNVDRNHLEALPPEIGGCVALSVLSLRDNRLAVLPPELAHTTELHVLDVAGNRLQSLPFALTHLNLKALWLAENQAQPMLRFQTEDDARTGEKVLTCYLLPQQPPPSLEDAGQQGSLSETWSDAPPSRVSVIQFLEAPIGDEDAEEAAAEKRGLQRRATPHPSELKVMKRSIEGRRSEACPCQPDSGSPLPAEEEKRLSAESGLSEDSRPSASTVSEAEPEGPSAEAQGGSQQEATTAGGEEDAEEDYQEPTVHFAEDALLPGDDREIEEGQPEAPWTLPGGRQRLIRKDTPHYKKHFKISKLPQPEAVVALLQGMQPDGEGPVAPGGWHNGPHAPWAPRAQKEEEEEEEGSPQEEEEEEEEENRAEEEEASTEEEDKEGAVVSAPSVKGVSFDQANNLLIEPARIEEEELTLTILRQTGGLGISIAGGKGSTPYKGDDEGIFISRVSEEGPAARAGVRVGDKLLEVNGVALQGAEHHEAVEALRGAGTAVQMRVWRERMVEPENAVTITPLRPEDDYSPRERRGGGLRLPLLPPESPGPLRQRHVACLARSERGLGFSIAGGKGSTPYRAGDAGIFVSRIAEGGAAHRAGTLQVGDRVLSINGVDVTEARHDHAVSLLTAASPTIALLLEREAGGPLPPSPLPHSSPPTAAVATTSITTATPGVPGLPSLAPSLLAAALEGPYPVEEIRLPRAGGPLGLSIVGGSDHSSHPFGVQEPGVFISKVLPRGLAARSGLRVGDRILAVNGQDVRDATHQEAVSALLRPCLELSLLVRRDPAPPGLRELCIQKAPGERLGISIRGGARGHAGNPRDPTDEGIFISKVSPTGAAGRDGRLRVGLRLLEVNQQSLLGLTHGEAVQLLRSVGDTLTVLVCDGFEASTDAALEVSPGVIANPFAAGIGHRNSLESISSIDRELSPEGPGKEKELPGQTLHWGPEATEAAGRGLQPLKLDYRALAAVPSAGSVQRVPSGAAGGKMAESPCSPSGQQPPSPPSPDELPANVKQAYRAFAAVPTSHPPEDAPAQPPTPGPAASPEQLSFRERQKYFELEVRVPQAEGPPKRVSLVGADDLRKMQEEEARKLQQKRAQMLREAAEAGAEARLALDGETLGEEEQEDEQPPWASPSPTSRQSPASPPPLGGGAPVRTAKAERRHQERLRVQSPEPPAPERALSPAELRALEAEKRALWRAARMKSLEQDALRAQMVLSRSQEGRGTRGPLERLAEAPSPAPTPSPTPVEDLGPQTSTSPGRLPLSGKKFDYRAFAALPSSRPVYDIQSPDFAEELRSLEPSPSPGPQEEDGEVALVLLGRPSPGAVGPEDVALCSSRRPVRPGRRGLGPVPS

Row | binding [1] | binding [2] | binding (HA-SCRIB) | Binder
1 | binds | no binding | – | Flag-PTPN21 (enzyme, UniProt Q16825 1-1174) MPLPFGLKLKRTRRYTVSSKSCLVARIQLLNNEFVEFTLSVESTGQESLEAVAQRLELREVTYFSLWYYNKQNQRRWVDLEKPLKKQLDKYALEPTVYFGVVFYVPSVSQLQQEITRYQYYLQLKKDILEGSIPCTLEQAIQLAGLAVQADFGDFDQYESQDFLQKFALFPVGWLQDEKVLEEATQKVALLHQKYRGLTAPDAEMLYMQEVERMDGYGEESYPAKDSQGSDISIGACLEGIFVKHKNGRHPVVFRWHDIANMSHNKSFFALELANKEETIQFQTEDMETAKYIWRLCVARHKFYRLNQCNLQTQTVTVNPIRRRSSSRMSLPKPQPYVMPPPPQLHYNGHYTEPYASSQDNLFVPNQNGYYCHSQTSLDRAQIDLNGRIRNGSVYSAHSTNSLNNPQPYLQPSPMSSNPSITGSDVMRPDYLPSHRHSAVIPPSYRPTPDYETVMKQLNRGLVHAERQSHSLRNLNIGSSYAYSRPAALVYSQPEIREHAQLPSPAAAHCPFSLSYSFHSPSPYPYPAERRPVVGAVSVPELTNAQLQAQDYPSPNIMRTQVYRPPPPYPPPRPANSTPDLSRHLYISSSNPDLITRRVHHSVQTFQEDSLPVAHSLQEVSEPLTAARHAQLHKRNSIEVAGLSHGLEGLRLKERTLSASAAEVAPRAVSVGSQPSVFTERTQREGPEEAEGLRYGHKKSLSDATMLIHSSEEEEDEDFEEESGARAPPARAREPRPGLAQDPPGCPRVLLAGPLHILEPKAHVPDAEKRMMDSSPVRTTAEAQRPWRDGLLMPSMSESDLTTSGRYRARRDSLKKRPVSDLLSGKKNIVEGLPPLGGMKKTRVDAKKIGPLKLAALNGLSLSRVPLPDEGKEVATRATNDERCKILEQRLEQGMVFTEYERILKKRLVDGECSTARLPENAERNRFQDVLPYDDVRVELVPTKENNTGYINASHIKVSVSGIEWDYIATQGPLQNTCQDFWQMVWEQGIAIIAMVTAEEEGGREKSFRYWPRLGSRHNTVTYGRFKITTRFRTDSGCYATTGLKMKHLLTGQERTVWHLQYTDWPEHGCPEDLKGFLSYLEEIQSVRRHTNSTSDPQSPNPPLLVHCSAGVGRTGVVILSEIMIACLEHNEVLDIPRVLDMLRQQRMMLVQTLCQYTFVYRVLIQFLKSSRLI
2 | – | – | binds | Flag-DUSP26 (enzyme, UniProt Q9BV47 1-211) MCPGNWLWASMTFMARFSRSSSRSPVRTRGTLEEMPTVQHPFLNVFELERLLYTGKTACNHADEVWPGLYLGDQDMANNRRELRRLGITHVLNASHSRWRGTPEAYEGLGIRYLGVEAHDSPAFDMSIHFQTAADFIHRALSQPGGKILVHCAVGVSRSATLVLAYLMLYHHLTLVEAIKKVKDHRGIIPNRGFLRQLLALDRRLRQGLEA
